Laboratory results from article PMC5024129, “Adipokinetic hormones and their G protein-coupled receptors emerged in Lophotrochozoa” (Scientific Reports, 2016).
Structures were worked out from names or drawings and are uncertain.

Sequences of proteins named here, by UniProt entry; tags and fusion partners are left off. Residues count along the entry.
UniProt B1VCT5, 1-472: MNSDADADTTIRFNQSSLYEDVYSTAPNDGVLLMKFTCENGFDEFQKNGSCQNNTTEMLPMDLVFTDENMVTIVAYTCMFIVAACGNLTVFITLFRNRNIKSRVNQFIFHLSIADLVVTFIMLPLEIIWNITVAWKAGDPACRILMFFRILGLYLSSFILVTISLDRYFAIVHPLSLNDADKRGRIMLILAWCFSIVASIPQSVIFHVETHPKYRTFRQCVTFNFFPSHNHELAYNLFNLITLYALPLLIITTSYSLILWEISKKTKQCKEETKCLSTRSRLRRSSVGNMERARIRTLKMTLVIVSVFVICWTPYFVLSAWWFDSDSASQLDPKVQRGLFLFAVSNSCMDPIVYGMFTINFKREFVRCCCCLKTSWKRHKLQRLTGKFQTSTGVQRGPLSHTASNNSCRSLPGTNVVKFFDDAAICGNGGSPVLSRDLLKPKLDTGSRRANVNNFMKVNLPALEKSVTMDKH

target: C. gigas AKHR1-A (Magallana gigas, UniProt B1VCT5); assay: Bioluminescence assay in CHO/G-16 cells stably expressing C. gigas AKHR1-A (apoaequorin, IP3/Ca2+ cascade); assay type: cell-based, Crassostrea gigas; settings: 10^−6 M peptide, CHO/G-16/AKHR1-A cells, Fig. 5A, n = 3

Row | SMILES | Bioluminescence response (activation) of AKHR1-A
1 | CC(C)[C@H](NC(=O)[C@@H]1CCC(=O)N1)C(=O)N[C@H](C(=O)N[C@@H](Cc1ccccc1)C(=O)N[C@@H](CO)C(=O)N[C@@H](CCCCN)C(=O)NCC(=O)N[C@@H](Cc1c[nH]c2ccccc12)C(=O)NCC(=O)N1CCC[C@H]1C(N)=O)[C@@H](C)O | can be activated
2 | CC(C)[C@H](NC(=O)[C@@H]1CCC(=O)N1)C(=O)N[C@H](C(=O)N[C@@H](Cc1ccccc1)C(=O)N[C@@H](CO)C(=O)N[C@@H](CCCNC(=N)N)C(=O)N[C@@H](CC(=O)O)C(=O)N[C@@H](Cc1c[nH]c2ccccc12)C(=O)N[C@@H](CO)C(=O)N1CCC[C@H]1C(N)=O)[C@@H](C)O | can be activated
3 | CC(C)[C@H](NC(=O)[C@@H]1CCC(=O)N1)C(=O)N[C@H](C(=O)N[C@@H](Cc1ccccc1)C(=O)N[C@@H](CO)C(=O)N[C@@H](CCCNC(=N)N)C(=O)N[C@@H](CC(=O)O)C(=O)N[C@@H](Cc1c[nH]c2ccccc12)C(=O)N[C@@H](CC(N)=O)C(=O)N1CCC[C@H]1C(N)=O)[C@@H](C)O | can be activated
